According to article PMC10589346:
No constants are given. Whether binding was seen depends on the method and setting. In cells and extracts the contact can be indirect. Some binding calls cover weakened binding; strength is not graded here.

Chains of the proteins cited; added tags and fusions are not shown.
UniProt Q8N697: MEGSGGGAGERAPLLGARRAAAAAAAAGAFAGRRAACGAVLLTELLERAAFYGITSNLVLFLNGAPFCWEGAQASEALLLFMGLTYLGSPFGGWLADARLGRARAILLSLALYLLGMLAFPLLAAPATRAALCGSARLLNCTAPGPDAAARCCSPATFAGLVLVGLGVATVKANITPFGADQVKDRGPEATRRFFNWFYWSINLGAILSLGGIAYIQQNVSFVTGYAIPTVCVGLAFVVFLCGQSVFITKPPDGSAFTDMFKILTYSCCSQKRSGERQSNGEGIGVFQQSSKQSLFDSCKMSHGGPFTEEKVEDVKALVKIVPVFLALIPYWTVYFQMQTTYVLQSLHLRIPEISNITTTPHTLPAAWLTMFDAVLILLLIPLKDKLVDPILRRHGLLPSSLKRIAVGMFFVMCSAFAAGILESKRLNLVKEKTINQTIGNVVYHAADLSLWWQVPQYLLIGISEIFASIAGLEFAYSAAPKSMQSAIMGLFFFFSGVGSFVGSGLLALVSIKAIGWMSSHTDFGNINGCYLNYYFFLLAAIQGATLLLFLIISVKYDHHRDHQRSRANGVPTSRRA

Molecular target: SLC15A4-GFP and SLC15A4-mCherry (two differently labelled copies for FRET) (human) (UniProt Q8N697)
Experiment: FRET or BRET; SLC15A4-GFP and SLC15A4-mCherry co-transfected in HEK293T; dequenching FRET (acceptor bleaching) on a Nikon A1 HD25 microscope 48 h after transfection

Substance: SLC15A4-GFP and SLC15A4-mCherry (two differently labelled copies for FRET) (from UniProt Q8N697 1-577)
- binding: binds
